Reference: patent EP4458977A1 (Max-Planck-Gesellschaft zur Förderung der Wissenschaften …, priority 2023, dated 2024)

Key:
[1] = general procedure: Fmoc solid-phase peptide synthesis; Rink Amide AM resin LL (100-200 mesh); OxymaPure, HBTU, N,N'-diisopropylcarbodiimide, DIPEA (listed in materials); settings: whole synthesis
[2] = peptide made by a vendor (peptide synthesis; Rink Amide AM resin LL (100-200 mesh); OxymaPure, HBTU, N,N'-diisopropylcarbodiimide, DIPEA (listed in materials)); settings: whole synthesis, LC-MS or HPLC
HeLa cells = experiment: Confocal laser scanning microscopy and degradation study with PA library and HeLa cells; format: cell-based; settings: for Aggregate size after 30 min incubation (d0) / Aggregate size after 3 d incubation (d3): aggregates > 10 µm^2, HeLa cell culture
Description: In general, the procedure for determine whether a PA is degraded or not, is conducted by confocal laser scanning microscopy of Proteostat stained PAs which are added to Hela cells (2 µg peptide added to 20.000 cells). Microscopy is conducted at day 0 (d0, after 30 min of incubation) and at day 3 (d3, after 72 h of incubation). The number of aggregates >10 µm^2 is counted via 3D object counter in imaged in an area of 1008 µm × 1008 µm.
A PA is considered to be degradable if the number and the size of aggregates are reduced after 3 days. The efficiency is determined by the percentual degradation (aggregate number at d3 / aggregate number at d0). For the number of aggregation three technical replicates were evaluated for each sample. A large deviation represents a nonhomogeneous spatial distribution of aggregates.
Confocal laser scanning microscopy and degradation study with PA library and HeLa cells: Confocal laser scanning microscopy studies were performed for the visualization of the cell-PA interaction. HeLa cells were seeded one day prior to conducting the assay (20,000/well) in an 8-well IBIDI slide. […] The nucleus of the HeLa cells was stained with Hoechst 33342 (NucBlue™, Thermo Fisher Scientific). The peptide solution mixture was transferred to the HeLa cells and incubated for 30 min at 37°C before washing three times with PBS. […] For the evaluation of aggregate degradation, the samples were further incubated at 37°C for 3 d and analyzed without any additional washing step. […] The number of aggregates were determined by counting aggregates larger than the threshold 10 µm^2 in an area of 1008 × 1008 µm and repeated in three technical triplicates.

| Compound | crude yield [1] | formation of µm-sized PA clusters (Proteostat stained, with HeLa cells) (HeLa cells) | other results |
| --- | --- | --- | --- |
| PEPTIDE1{[cap].F.Q.F.K.F.K.C.[am]}$$$$V2.0 | 25% | – | – |
| PEPTIDE1{[cap].V.V.V.A.A.A.E.E.E.[am]}$$$$V2.0 | 46% | – | – |
| PEPTIDE1{[cap].V.V.V.A.A.A.K.K.K.[am]}$$$$V2.0 | 34% | – | – |
| PEPTIDE1{Q.C.K.I.K.Q.I.I.N.M.W.Q}$$$$V2.0 | – | – | purity (crude or final not stated) [2]: >95% |
| CCCCCCCCCCCCCCCC(=O)N[C@@H](C)C(=O)NCC(=O)NCC(=O)N[C@@H](CCCNC(=N)N)C(=O)N[C@H](C(=O)N[C@@H](CCCCN)C(N)=O)C(C)C [Pat18, C16-AGGRVK-NH2] (Palmitoyl-AGGRVK-NH2) | – | no formation of µm-sized PA clusters | – |
| Nap-VVVAAAKKK-NH2 (N-terminal naphthyl; C-terminal amide; source 1..9: note = Peptide Amphiphile Pat13; MOD_RES 9: note = AMIDATION; note = lysine amide; MOD_RES 1: note = 2-naphthylmethyl; note = N-2-naphthylmethyl valine) | – | no formation of µm-sized PA clusters | – |
| CCCCCCCCCCCCCCCC(=O)N[C@@H](C)C(=O)N[C@@H](CC(C)C)C(=O)N[C@@H](C)C(=O)N[C@@H](C)C(=O)NCC(=O)N[C@@H](CCCCN)C(=O)N[C@@H](CCCCN)C(N)=O [Pat20, C16-ALAAGKK-NH2] (Palmitoyl-ALAAGKK-NH2) | – | formation of µm-sized PA clusters | Aggregate size after 30 min incubation (d0) (HeLa cells): 38 µm^2; Aggregate size after 3 d incubation (d3) (HeLa cells): 45 µm^2 |
| CCCCCCCCCCCC(=O)N[C@H](C(=O)N[C@H](C(=O)N[C@H](C(=O)N[C@@H](C)C(=O)N[C@@H](C)C(=O)N[C@@H](C)C(=O)N[C@@H](CCCCN)C(=O)N[C@@H](CCCCN)C(=O)N[C@@H](CCCCN)C(N)=O)C(C)C)C(C)C)C(C)C [Pat7] (Lauroyl-VVVAAAKKK-NH2) | – | formation of µm-sized PA clusters | Aggregate size after 30 min incubation (d0) (HeLa cells): 45 µm^2; Aggregate size after 3 d incubation (d3) (HeLa cells): 63 µm^2 |

Some entries repeat one wording, which the source may state once for all of them. For part of these data: HELM strings list residues between dots; [ac] is acetyl, [am] amide, other brackets name non-standard units. Where a SMILES comes first, the peptide text is derived from it. The star is where a group is joined. Palmitoyl = CCCCCCCCCCCCCCCC(=O)*; Lauroyl = CCCCCCCCCCCC(=O)*
